This passage reports log2 fold change results from the supplement of paper PMC12819154, “High-throughput peptide-centric local stability assay extends protein–ligand identification to membrane proteins, tissues and bacteria” (Nature Structural & Molecular Biology, 2025).

By UniProt entry, the sequences of proteins in these tests, tags left out. Where a name states a change or a piece, a line headed by the entry shows the natural chain unless it says otherwise.
UniProt Q86VP1, whole entry: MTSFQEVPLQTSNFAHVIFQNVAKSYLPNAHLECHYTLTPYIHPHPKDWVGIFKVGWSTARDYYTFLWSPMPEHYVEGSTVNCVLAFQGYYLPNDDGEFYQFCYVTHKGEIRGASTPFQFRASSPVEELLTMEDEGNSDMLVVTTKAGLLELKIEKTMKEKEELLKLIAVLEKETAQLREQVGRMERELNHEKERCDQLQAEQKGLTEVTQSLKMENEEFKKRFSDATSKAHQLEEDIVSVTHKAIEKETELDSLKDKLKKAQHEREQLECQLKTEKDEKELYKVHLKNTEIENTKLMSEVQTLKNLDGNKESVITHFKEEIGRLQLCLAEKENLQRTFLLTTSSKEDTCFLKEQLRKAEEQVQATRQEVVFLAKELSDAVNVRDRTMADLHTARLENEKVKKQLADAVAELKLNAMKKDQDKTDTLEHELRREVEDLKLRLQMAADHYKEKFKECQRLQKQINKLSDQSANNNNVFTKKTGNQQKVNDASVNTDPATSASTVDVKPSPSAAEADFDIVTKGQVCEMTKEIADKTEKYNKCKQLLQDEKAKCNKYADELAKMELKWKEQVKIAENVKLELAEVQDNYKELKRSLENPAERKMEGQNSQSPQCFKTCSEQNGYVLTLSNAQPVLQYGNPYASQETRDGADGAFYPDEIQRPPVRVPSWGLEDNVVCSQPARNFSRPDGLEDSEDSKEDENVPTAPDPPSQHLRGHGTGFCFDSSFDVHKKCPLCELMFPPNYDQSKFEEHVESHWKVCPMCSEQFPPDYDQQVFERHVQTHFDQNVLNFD
UniProt Q8N0W3: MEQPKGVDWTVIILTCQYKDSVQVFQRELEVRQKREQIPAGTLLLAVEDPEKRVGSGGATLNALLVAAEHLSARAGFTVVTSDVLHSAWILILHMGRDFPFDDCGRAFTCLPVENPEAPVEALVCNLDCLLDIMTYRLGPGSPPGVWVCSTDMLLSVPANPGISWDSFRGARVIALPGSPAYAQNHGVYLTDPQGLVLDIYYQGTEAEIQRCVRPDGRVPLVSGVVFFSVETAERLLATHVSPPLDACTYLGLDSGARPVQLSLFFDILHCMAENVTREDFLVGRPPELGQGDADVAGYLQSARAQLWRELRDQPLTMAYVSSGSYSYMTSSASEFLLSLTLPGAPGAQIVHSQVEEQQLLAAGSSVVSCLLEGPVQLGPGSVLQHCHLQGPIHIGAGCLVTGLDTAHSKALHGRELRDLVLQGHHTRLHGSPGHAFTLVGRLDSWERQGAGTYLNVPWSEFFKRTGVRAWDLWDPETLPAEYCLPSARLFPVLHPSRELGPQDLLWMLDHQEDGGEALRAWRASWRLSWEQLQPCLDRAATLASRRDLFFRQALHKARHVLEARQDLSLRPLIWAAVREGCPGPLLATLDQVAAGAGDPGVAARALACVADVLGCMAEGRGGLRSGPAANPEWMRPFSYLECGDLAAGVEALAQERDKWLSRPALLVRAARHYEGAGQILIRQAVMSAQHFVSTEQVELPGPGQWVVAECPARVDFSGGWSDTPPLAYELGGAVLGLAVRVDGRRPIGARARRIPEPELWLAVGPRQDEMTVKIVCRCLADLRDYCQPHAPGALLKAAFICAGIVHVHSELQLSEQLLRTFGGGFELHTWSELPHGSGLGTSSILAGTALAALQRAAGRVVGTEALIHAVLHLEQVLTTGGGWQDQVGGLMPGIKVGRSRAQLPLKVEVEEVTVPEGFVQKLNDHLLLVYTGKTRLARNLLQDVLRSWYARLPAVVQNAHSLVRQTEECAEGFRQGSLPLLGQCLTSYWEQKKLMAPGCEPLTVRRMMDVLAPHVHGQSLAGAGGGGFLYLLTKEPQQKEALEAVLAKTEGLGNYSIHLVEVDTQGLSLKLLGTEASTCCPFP
UniProt Q8IWD4: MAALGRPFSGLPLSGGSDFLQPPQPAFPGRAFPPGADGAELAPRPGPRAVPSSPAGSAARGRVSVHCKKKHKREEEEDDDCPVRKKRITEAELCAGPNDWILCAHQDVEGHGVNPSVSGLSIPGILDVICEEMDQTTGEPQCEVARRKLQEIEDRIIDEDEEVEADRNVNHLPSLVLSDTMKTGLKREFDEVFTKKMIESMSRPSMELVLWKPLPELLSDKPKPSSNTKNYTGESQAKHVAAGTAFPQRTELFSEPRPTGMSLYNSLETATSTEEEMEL
UniProt Q8IWL3: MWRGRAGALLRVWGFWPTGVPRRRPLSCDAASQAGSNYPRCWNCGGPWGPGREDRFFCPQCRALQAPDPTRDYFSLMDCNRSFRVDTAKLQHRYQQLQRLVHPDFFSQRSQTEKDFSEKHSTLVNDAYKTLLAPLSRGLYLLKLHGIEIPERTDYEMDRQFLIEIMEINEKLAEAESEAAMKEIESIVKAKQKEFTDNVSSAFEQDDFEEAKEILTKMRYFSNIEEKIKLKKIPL
UniProt Q86UX2: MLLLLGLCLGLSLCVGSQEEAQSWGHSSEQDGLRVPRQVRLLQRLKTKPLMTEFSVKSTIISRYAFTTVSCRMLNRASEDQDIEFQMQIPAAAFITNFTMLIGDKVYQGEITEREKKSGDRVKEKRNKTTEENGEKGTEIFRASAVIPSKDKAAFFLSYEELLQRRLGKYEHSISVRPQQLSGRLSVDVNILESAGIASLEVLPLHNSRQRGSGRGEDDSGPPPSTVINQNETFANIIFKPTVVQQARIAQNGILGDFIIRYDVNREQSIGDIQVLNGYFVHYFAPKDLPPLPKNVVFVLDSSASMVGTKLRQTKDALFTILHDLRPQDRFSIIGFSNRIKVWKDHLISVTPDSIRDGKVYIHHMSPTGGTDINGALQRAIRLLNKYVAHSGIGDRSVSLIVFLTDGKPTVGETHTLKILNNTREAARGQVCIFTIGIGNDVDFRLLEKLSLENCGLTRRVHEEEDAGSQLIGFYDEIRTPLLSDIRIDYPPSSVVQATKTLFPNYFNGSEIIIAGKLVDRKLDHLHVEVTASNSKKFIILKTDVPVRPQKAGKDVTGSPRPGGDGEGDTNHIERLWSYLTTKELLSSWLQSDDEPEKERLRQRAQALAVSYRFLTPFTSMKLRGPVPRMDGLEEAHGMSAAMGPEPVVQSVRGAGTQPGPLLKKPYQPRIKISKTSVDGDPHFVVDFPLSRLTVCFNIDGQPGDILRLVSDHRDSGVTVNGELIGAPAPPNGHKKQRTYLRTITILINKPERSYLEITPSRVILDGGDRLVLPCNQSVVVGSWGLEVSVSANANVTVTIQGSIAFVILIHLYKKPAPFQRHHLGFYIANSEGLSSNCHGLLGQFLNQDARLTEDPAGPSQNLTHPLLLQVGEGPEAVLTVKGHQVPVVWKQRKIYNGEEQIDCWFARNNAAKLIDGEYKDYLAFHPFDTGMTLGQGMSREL
UniProt Q8N128: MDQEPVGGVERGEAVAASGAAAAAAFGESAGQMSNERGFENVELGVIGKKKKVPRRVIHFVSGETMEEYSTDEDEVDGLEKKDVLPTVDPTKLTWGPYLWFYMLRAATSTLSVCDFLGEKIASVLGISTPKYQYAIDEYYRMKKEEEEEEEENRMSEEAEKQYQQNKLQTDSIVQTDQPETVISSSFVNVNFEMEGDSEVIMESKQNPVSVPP
UniProt Q86Y07: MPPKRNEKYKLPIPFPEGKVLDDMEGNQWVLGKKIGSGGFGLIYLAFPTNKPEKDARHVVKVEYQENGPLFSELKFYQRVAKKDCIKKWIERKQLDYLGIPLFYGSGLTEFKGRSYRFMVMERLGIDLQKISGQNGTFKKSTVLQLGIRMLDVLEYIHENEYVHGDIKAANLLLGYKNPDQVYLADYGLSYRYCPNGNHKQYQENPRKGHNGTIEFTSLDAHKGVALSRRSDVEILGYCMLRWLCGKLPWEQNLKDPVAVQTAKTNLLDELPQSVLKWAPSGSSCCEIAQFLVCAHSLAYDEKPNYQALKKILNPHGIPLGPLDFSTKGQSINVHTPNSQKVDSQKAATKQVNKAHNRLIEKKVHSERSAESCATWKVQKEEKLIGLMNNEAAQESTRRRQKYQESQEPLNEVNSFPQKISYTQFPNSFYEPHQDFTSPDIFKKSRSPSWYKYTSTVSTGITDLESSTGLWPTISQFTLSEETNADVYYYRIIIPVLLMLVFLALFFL
UniProt Q8IY63: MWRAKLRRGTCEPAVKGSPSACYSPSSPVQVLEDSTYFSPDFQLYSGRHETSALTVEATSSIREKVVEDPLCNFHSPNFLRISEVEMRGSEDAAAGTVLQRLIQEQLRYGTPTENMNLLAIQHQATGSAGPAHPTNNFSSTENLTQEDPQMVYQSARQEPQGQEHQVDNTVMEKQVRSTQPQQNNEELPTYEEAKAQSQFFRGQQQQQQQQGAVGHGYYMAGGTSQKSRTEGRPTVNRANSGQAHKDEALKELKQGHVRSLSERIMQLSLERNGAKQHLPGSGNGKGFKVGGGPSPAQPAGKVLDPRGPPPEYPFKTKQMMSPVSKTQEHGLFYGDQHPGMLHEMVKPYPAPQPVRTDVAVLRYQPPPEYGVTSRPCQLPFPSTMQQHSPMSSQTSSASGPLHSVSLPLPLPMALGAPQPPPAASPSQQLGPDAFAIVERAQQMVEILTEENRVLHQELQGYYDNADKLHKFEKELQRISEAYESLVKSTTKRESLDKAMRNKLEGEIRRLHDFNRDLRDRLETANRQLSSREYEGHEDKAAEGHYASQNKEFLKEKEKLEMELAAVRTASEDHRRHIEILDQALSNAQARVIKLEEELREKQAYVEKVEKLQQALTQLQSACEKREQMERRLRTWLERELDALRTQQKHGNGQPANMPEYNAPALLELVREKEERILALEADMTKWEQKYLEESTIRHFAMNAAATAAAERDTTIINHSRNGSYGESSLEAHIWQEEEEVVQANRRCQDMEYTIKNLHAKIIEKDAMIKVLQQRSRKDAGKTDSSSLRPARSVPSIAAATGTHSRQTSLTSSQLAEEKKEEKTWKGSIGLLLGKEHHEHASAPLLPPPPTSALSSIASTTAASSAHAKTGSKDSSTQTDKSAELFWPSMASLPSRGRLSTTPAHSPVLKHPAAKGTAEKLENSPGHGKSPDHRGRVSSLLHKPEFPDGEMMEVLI
UniProt Q86YH6: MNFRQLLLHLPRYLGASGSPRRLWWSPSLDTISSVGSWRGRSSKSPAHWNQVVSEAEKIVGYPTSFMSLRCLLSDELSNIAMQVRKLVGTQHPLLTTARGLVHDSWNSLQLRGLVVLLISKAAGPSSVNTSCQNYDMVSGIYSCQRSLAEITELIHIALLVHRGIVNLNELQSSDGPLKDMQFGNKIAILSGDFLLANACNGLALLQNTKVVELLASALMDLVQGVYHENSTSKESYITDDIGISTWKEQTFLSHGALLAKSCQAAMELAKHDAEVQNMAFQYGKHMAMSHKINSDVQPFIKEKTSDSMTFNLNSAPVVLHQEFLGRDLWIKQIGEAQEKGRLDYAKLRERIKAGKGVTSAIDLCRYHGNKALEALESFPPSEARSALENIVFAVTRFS
UniProt Q86VG3: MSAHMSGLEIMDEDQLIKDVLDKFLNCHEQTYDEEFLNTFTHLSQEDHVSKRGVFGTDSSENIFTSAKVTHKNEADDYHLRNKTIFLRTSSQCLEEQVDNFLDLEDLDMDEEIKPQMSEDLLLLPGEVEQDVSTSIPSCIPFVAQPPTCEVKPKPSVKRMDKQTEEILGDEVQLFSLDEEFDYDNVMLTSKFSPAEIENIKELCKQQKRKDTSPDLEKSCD
UniProt Q8N0V3: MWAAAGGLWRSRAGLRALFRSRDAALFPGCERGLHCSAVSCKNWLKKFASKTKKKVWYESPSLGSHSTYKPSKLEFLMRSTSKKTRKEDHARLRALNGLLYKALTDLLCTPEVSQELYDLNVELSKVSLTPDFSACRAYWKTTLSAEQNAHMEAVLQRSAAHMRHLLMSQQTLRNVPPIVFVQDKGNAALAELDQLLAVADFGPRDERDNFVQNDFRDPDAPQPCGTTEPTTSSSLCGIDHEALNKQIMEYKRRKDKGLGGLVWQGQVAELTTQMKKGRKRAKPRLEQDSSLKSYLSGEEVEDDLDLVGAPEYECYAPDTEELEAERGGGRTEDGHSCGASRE
UniProt Q8IUI4: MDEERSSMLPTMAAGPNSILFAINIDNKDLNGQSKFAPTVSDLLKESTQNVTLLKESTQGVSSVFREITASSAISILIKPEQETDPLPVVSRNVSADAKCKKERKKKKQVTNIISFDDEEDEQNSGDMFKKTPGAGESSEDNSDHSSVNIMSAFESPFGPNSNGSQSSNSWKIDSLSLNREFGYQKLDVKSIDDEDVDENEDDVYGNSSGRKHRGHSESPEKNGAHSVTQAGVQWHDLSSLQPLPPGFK
UniProt Q8IV42: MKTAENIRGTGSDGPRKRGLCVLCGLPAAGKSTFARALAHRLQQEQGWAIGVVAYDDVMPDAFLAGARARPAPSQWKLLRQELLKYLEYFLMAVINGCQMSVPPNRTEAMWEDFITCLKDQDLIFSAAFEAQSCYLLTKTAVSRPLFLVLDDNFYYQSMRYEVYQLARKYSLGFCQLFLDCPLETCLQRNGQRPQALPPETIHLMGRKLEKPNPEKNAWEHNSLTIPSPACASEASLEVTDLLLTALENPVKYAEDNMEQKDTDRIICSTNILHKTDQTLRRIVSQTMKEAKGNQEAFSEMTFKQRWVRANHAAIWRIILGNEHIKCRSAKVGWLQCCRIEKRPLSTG

The other results are listed elsewhere or left out. Small differences around the control level are noise.

Compound in the assay: Cc1nc(Nc2ncc(C(=O)Nc3c(C)cccc3Cl)s2)cc(N2CCN(CCO)CC2)n1 [dasatinib]
Briefly: log2 fold change of tryptic peptide abundance, ligand vs vehicle (limited proteolysis) (log2 ratio); higher = more trypsin-susceptible (destabilized). The note with it: ligand concentration: 5 uM; sample: K562 cleared lysate.
Regarding “RAB11FIP4 (peptide sequence: KISSTAFGR, peptide start residue: 302) (UniProt Q86YS3)”, the log2 fold change is -0.488.
The value for “TAX1BP1 (peptide sequence: LQLCLAEK, peptide start residue: 325) (UniProt Q86VP1)” was -0.629; that for “UniProt Q8IUE6 (peptide sequence: TESHKPGK, peptide start residue: 121)” was -0.0944; that for “ABCA7 (peptide sequence: MDIDVVTR, peptide start residue: 468) (UniProt Q8IZY2)” was 0.172.
The value for “UniProt Q8N0W3 (peptide sequence: QDLSLRPLIWAAVR, peptide start residue: 566)” was -0.499; that for “UniProt Q86WZ6 (peptide sequence: DVMVENFK, peptide start residue: 50)” was 0.476; that for “CCDC117 (peptide sequence: TELFSEPR, peptide start residue: 250) (UniProt Q8IWD4)” was -0.28.
The value for “HSCB (peptide sequence: SQTEKDFSEK, peptide start residue: 110) (UniProt Q8IWL3)” was 0.257.
For “UniProt Q8IYA2 (peptide sequence: ENVQLHKEVEEEMEK, peptide start residue: 469)”, the log2 fold change was determined as 0.494.
Then “PARP9 (peptide sequence: EIHLVSNEDPTVAAFK, peptide start residue: 274) (UniProt Q8IXQ6)”, with -0.956.
The value for “SRRM1 (peptide sequence: KVELSESEEDKGGK, peptide start residue: 459) (UniProt Q8IYB3)” was 0.323; that for “DNAJC10 (peptide sequence: AYEVLKDEDLRK, peptide start residue: 83) (UniProt Q8IXB1)” was -0.234.
Then “LYSMD2 (peptide sequence: AGDTLQGIALK, peptide start residue: 77) (UniProt Q8IV50)”, with 0.0804; and “UniProt Q86UX2 (peptide sequence: TITILINKPER, peptide start residue: 743)”, with -0.874.
On to “UniProt Q8IW41 (peptide sequence: DLKPENLLFK, peptide start residue: 148)”, for which the log2 fold change was 0.545.
As to “RPTOR (peptide sequence: MFDKGPEQTADDADDAAGHK, peptide start residue: 929) (UniProt Q8N122)”, the log2 fold change was -0.34.
As to “FAM177A1 (peptide sequence: IASVLGISTPK, peptide start residue: 121) (UniProt Q8N128)”, the log2 fold change turned out to be 0.355.
In the case of “VPS36 (peptide sequence: RWENMPVSQSLQTNR, peptide start residue: 130) (UniProt Q86VN1)”, the log2 fold change was -0.181.
Then “SGMS1 (peptide sequence: IKPNGMPNGYRK, peptide start residue: 102) (UniProt Q86VZ5)”, with 0.26; and “UniProt Q86XE0 (peptide sequence: MKQELEAEYLAIFKK, peptide start residue: 125)”, with -0.188.
With “VRK2 (peptide sequence: STVLQLGIR, peptide start residue: 141) (UniProt Q86Y07)”, the log2 fold change is -0.583.
The value for “SPATS2 (peptide sequence: FTCDVETLKK, peptide start residue: 354) (UniProt Q86XZ4)” was 0.676.
With “AMOTL1 (peptide sequence: LQQALTQLQSACEKR, peptide start residue: 612) (UniProt Q8IY63)”, the log2 fold change was -0.184.
For the target “PDSS2 (peptide sequence: INSDVQPFIK, peptide start residue: 293) (UniProt Q86YH6)”, the log2 fold change was found to be 0.239.
With “UniProt Q86YF9 (peptide sequence: EELQELK, peptide start residue: 777)”, the log2 fold change is -0.0912.
The value for “PNMA8A (peptide sequence: KPCVNKEELALK, peptide start residue: 293) (UniProt Q86V59)” was -0.125; that for “PROSER2 (peptide sequence: YLTHEEK, peptide start residue: 53) (UniProt Q86WR7)” was 0.377; that for “C9orf40 (peptide sequence: AAEPVTFHVPWKR, peptide start residue: 6) (UniProt Q8IXQ3)” was -0.334.
Regarding “DHX40 (peptide sequence: SRDLQEER, peptide start residue: 21) (UniProt Q8IX18)”, the log2 fold change is -0.387.
“C11orf74 (peptide sequence: FSPAEIENIKELCK, peptide start residue: 192) (UniProt Q86VG3)”: the log2 fold change came to 0.35.
Then “FOXRED2 (peptide sequence: HDWNSLLSHDPR, peptide start residue: 97) (UniProt Q8IWF2)”, with 0.0221; and “UniProt Q8N0V3 (peptide sequence: HLLMSQQTLR, peptide start residue: 165)”, with -0.264.
Then “ZNF100 (peptide sequence: AFNWFSTLTTHR, peptide start residue: 241) (UniProt Q8IYN0)”, with 0.604.
The value for “ZNF595 (peptide sequence: IFQCNTCVK, peptide start residue: 144) (UniProt Q8IYB9)” was 0.241; that for “UniProt Q8IUI4 (peptide sequence: FAPTVSDLLK, peptide start residue: 188)” was 0.126; that for “RTTN (peptide sequence: GTHHSQNPSPGSSSPRPSVVGR, peptide start residue: 297) (UniProt Q86VV8)” was -0.0228.
Regarding “UniProt Q8IV42 (peptide sequence: YEVYQLAR, peptide start residue: 161)”, the log2 fold change was -0.117.
